# Source: patent US20240309360A1, “TRANS-ACTIVATORS AND METHODS AND USE THEREOF” (THE GOVERNING COUNCIL OF THE UNIVERSITY OF TORONTO, priority 2021, published 2024)
# Amino acid sequences for entries named in this document (tags omitted). Residues count along the entry.
# UniProt P25440: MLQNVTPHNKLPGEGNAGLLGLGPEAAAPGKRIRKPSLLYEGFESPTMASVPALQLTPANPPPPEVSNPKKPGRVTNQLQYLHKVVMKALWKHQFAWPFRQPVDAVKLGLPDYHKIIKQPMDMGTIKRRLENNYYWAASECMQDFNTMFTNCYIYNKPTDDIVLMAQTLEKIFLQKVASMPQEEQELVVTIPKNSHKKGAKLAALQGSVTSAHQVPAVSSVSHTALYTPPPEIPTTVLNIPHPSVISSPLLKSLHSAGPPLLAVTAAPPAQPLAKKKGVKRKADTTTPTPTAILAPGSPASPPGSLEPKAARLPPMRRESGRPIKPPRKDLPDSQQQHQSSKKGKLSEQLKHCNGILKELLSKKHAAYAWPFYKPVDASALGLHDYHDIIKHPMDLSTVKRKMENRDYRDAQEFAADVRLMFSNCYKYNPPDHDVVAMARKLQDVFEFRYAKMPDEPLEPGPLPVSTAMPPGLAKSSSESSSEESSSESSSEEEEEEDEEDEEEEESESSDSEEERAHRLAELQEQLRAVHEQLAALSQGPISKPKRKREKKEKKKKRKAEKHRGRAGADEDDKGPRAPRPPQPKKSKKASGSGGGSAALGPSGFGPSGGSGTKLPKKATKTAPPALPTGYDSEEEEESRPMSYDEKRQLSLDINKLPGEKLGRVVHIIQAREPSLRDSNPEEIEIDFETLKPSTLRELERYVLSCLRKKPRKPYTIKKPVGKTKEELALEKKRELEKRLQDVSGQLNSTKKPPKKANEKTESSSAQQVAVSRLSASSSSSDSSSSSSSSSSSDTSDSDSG
# UniProt Q15059, residues 2-726: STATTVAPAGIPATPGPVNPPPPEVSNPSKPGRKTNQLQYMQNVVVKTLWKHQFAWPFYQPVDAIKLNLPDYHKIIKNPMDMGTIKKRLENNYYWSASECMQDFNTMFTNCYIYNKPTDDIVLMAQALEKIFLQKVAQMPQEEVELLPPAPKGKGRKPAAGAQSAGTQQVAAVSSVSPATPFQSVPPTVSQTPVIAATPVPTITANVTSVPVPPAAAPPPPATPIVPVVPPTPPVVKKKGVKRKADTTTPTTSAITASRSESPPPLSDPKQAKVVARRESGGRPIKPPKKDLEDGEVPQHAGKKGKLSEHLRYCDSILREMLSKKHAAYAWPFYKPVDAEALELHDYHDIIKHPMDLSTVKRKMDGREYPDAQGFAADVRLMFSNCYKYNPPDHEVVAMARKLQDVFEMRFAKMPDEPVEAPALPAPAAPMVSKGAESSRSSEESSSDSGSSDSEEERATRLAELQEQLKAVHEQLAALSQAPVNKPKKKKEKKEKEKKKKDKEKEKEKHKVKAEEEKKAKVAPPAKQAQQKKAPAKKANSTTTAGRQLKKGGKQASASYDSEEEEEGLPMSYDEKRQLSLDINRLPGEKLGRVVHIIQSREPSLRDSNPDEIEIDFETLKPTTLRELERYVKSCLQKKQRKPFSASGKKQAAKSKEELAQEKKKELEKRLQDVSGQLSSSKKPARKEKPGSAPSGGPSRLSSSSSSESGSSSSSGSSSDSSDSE
# UniProt Q09472, residues 2-2414: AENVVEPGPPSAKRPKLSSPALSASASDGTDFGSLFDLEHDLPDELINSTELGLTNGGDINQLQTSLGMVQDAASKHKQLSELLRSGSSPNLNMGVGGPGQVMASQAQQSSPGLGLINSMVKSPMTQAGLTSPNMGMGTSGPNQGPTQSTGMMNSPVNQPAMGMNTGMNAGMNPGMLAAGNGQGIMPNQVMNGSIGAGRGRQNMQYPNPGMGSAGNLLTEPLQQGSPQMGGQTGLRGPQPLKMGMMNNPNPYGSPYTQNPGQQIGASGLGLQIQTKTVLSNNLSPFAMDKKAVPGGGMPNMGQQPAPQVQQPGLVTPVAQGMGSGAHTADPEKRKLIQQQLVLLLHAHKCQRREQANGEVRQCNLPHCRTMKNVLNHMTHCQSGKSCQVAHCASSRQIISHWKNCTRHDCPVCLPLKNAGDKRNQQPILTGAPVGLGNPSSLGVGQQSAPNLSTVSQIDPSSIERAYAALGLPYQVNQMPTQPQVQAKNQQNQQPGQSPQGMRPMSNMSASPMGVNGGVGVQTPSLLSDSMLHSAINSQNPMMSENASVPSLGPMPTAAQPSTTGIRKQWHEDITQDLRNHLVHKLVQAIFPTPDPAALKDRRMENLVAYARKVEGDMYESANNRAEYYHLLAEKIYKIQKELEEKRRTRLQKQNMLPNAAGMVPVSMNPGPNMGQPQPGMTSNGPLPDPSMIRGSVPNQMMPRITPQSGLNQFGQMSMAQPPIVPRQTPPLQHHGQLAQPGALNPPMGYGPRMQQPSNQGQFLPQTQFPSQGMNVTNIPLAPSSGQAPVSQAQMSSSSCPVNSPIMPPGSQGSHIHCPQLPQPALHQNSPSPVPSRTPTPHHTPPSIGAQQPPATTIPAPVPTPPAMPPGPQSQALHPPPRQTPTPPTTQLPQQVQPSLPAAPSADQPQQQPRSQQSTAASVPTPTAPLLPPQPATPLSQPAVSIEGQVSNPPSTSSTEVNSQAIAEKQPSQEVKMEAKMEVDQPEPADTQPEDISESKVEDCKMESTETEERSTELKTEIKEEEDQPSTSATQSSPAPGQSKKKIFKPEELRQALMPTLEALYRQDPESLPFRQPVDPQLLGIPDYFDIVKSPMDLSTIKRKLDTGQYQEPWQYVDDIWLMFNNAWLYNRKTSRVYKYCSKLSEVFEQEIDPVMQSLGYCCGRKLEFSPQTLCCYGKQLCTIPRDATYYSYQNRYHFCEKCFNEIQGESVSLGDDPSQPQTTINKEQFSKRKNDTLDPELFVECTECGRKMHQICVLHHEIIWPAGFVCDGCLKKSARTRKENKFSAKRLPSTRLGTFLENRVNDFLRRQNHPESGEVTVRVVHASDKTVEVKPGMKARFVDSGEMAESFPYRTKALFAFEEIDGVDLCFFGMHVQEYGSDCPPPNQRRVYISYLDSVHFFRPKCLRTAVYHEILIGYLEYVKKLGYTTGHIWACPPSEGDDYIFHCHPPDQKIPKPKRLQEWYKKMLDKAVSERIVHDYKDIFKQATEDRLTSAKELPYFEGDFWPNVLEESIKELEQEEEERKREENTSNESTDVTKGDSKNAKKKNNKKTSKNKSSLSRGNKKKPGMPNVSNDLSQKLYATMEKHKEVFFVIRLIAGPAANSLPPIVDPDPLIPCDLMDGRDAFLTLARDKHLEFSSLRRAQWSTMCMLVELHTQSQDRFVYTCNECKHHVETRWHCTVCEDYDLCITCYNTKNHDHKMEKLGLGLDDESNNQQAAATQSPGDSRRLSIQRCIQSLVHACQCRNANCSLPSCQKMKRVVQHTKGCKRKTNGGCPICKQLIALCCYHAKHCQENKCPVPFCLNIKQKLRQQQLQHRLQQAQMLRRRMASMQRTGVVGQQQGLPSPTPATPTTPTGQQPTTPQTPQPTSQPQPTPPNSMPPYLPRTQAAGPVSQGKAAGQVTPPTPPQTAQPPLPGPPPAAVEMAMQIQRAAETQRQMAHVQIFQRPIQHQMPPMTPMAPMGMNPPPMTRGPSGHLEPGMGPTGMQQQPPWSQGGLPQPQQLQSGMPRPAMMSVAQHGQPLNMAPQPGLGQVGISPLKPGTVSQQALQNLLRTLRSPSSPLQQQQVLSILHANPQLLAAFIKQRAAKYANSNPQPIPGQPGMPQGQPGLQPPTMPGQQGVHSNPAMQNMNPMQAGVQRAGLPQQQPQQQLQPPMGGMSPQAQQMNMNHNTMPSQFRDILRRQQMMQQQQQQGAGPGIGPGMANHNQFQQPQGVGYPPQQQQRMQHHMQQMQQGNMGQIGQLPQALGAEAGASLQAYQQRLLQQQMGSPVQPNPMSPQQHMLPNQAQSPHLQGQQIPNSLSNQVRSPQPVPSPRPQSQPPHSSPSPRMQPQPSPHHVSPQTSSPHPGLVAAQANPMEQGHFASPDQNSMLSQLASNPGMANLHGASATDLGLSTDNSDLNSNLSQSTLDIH
# UniProt Q92793, residues 2-2442: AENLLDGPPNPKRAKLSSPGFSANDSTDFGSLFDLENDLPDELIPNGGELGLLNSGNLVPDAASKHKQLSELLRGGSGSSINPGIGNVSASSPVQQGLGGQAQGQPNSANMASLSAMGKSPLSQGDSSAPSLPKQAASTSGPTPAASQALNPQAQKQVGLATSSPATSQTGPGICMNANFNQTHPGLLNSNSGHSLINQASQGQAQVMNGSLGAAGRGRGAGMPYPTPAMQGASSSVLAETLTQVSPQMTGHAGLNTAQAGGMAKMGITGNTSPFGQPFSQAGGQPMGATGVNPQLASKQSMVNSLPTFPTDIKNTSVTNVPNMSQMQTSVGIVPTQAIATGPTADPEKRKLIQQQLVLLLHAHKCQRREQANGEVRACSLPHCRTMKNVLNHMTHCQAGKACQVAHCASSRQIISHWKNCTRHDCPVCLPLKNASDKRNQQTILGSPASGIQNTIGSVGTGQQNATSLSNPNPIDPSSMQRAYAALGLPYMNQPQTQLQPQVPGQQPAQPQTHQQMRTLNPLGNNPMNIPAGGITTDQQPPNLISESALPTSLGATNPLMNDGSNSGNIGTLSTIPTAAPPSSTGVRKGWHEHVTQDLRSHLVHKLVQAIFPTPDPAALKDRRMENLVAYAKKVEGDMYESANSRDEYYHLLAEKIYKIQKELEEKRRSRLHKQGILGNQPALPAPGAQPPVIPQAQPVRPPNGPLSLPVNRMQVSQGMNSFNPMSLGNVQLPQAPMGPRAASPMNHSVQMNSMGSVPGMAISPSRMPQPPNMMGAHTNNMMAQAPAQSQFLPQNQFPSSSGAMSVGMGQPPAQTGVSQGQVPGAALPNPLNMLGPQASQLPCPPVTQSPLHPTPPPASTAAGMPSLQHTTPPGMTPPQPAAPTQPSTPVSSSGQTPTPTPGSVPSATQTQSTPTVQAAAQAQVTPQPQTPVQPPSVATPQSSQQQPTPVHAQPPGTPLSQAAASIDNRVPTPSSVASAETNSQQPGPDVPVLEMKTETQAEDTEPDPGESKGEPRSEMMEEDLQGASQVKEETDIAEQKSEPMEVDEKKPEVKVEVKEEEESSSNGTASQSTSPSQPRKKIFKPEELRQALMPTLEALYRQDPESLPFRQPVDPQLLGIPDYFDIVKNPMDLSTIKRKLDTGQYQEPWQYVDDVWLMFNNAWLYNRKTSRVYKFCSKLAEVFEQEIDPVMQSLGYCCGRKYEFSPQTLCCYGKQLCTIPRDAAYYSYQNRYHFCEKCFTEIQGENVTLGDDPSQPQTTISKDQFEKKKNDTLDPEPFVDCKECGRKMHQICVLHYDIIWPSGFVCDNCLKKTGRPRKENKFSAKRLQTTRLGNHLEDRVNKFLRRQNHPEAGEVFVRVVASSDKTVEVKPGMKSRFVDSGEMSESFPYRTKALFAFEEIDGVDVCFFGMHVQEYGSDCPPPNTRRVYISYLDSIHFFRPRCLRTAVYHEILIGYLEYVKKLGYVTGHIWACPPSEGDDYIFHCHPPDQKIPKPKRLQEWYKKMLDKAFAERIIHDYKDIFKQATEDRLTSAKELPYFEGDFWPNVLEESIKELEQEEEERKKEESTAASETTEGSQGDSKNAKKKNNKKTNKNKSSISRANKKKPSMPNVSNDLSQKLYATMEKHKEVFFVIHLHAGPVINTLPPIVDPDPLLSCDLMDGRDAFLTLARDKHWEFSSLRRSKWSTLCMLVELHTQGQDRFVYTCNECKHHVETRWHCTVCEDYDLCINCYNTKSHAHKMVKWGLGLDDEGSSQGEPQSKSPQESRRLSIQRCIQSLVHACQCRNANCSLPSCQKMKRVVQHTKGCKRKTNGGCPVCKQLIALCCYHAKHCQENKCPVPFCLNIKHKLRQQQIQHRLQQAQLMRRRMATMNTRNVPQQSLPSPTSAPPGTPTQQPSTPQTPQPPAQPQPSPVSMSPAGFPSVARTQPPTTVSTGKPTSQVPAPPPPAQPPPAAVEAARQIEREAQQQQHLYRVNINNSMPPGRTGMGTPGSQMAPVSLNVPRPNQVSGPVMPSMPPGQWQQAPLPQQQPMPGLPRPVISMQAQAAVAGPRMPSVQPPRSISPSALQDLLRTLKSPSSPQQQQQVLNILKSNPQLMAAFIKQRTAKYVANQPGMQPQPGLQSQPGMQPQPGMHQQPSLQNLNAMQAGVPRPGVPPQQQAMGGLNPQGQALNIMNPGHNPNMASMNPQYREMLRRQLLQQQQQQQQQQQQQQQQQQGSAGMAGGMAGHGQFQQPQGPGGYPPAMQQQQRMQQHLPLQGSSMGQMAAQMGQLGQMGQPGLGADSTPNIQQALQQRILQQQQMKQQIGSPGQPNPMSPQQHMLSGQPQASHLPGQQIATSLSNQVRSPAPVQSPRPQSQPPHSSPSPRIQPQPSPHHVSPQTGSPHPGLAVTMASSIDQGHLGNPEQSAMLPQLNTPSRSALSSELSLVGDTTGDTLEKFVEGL
# Results are given in words; binding and its absence hold for the method and conditions named. For some assays here: Binding seen in cells or lysates may run through a third protein. Some results given as binding are weak or reduced against the parent protein; the word gives no strength. Tags and fused reporters may be left off the sequences shown.
# B1: SS18L2 fused to BioID2 (BirA from Aquifex aeolicus) and FLAG (protein, human;Aquifex aeolicus, UniProt Q9UHA2 1-77, looked up, not shown: small tags and cut ends)
# chain: MSVAFVPDWLRGKAEVNQETIQRLLEENDQLIRCIVEYQNKGRGNECVQYQHVLHRNLIYLATIADASPTSTSKAME
# B2: SPDYE4 fused to BioID2 (BirA from Aquifex aeolicus) and FLAG (protein, human;Aquifex aeolicus, UniProt A6NLX3 1-237, looked up, not shown: small tags and cut ends)
# chain: MASGQARPPFEEESPQPSTTVRSPEVVVDDEVPGPSAPWIDPSPQPQSLGLKRKSEWSDESEEELEEELELERAPEPEDTWVVETLCGLKMKLKRKRASSVLPEHHEAFNRLLGDPVVQKFLAWDKDLRVSDKYLLAMVIAYFSRAGLFSWQYQRIHFFLALYLASDMEEDNQAPKQDIFSFLYGKNYSQRPLFHKLRYQLLCSMRWRTWVSPEEMEEIQAYDPEHWVWARDRTLIS
# B3: FAM90A1 fused to BioID2 (BirA from Aquifex aeolicus) and FLAG (protein, human;Aquifex aeolicus, UniProt Q86YD7 1-464, looked up, not shown: small tags and cut ends)
# chain: MMARRDPKPGAKRLVRAQTLQKQRRAPVGPRAPPPDEEDPRLKCKNCEAFGHTARSTRCPMKCWKAALVPPNFGEKEGKENLKPWKPQVEANPGPLNKDKGEKEERPRPQDPQRKALLHIFSRKPPEKPLPNQKGSTESSDYLRVASGPMPVHTTSKRPRVDPVLSDRSATEMSDRGSVLASLSPLRKASLSSSSSLGPKERQTGAAADIPQTAVRHQGPEPLLVVKPTHSSPAGGCREVPQAASKTHGLLQAVSPQAQDKRPAVTSQPCPPAATHSLGLGSNLSFGPGAKRSAPAPIQACLNFPKKPRLGPFQIPESAIQGGELGAPENLQPPPAATELGPRTSPQTGTRTPAQVLSGDRQPPHSRPCLPTAQACTMSHHPAASHDGAQPLRVLFRRLENGRWSSSLLTAPSFHSPEKPGAFLAQSPHVSEKSEGPCVRVPPSVLYEDLQVPSSSEDSDSDLE
# B4: DCAF7 fused to BioID2 (BirA from Aquifex aeolicus) and FLAG (protein, human;Aquifex aeolicus, UniProt P61962 1-342, looked up, not shown: small tags and cut ends)
# chain: MSLHGKRKEIYKYEAPWTVYAMNWSVRPDKRFRLALGSFVEEYNNKVQLVGLDEESSEFICRNTFDHPYPTTKLMWIPDTKGVYPDLLATSGDYLRVWRVGETETRLECLLNNNKNSDFCAPLTSFDWNEVDPYLLGTSSIDTTCTIWGLETGQVLGRVNLVSGHVKTQLIAHDKEVYDIAFSRAGGGRDMFASVGADGSVRMFDLRHLEHSTIIYEDPQHHPLLRLCWNKQDPNYLATMAMDGMEVVILDVRVPCTPVARLNNHRACVNGIAWAPHSSCHICTAADDHQALIWDIQQMPRAIEDPILAYTAEGEINNVQWASTQPDWIAICYNNCLEILRV
# B5: FAM22F/NUTM2F fused to BioID2 (BirA from Aquifex aeolicus) and FLAG (protein, human;Aquifex aeolicus, UniProt A1L443 1-756, looked up, not shown: small tags and cut ends)
# chain: MASNGAYPVLGPGVTVNPGTSLSVFTALPFATPAPGPAHRPPLVTAVVPPAGPLVLSAFPSTPLVAGQDGRGPSGAGASNVFVQMRTEVGPVKPPQAQTLILTQAPLVWQAPGTLCGGVMCPPPLLLAAAPGVPVTSAQVVGGTQACEGGWSHGLPLPPPPPAAQVAPIVSPGNARPWPQGAHGEGSLAPSQAKARPDDSCKPKSVYENFRLWQHYKPLARRHLPQSPDTEALSCFLIPVLRSLARRKPTMTLEEGLWQAMREWQHTSNFDRMIFYEMAEKFLEFEAEEEMQIQKSQWMKGPQSLPPPAPPRLEPRGPPAPEVVKQPVYLPSKDGPKAPTACLPPPRPQRPAETKAHLPPPRPQRPAETNAHLPPPRPQRPAETKVPEEIPPEVVQEYVDIMEELLGSHPGDTGEPEGQREKGKVEQPQEEDGITSDPGLLSYIDKLCSQEDFVTKVEAVIHPRFLEELLSPDPQMDFLALSQELEQEEGLTLAQLVEKRLLSLKEKGCGRAAPRHGTARLDSSPSEFAAGQEAAREVPDPQQRVSVETSPPQTAAQDPQGQGRVRTGMARSEDPAVLLGCQDSPRLKAVRPTSPPQDHRPTCPGLGTKDALGLPGESPVKESHGLAKGSSEETELPGMVYVVGSHHRLRPWRLSQSPVPSSGLLSPGGRGPQGALQSPSAQKRGLSPSPSPASKSKKRPLFGSPSPAEKTPHPGPGLRVSGEQSLAWGLGGPSQSQKRKGDPLASRRKKKRHCSQ
# B6: SRF-C3orf62 fusion tagged with BirA-FLAG (protein, human;Aquifex aeolicus, UniProt P11831 1-338, looked up, not shown: small tags and cut ends)
# chain: MLPTQAGAAAALGRGSALGGSLNRTPTGRPGGGGGTRGANGGRVPGNGAGLGPGRLEREAAAAAATTPAPTAGALYSGSEGDSESGEEEELGAERRGLKRSLSEMEIGMVVGGPEASAAATGGYGPVSGAVSGAKPGKKTRGRVKIKMEFIDNKLRRYTTFSKRKTGIMKKAYELSTLTGTQVLLLVASETGHVYTFATRKLQPMITSETGKALIQTCLNSPDSPPRSDPTTDQRMSATGFEETDLTYQVSESDSSGETKDTLKPAFTVTNLPGTTSTIQTAPSTSTTMQVSSGPSFPITNYLAPVSASVSPSAVSSANGTVLKSTGSGPVSSGGLMQAAVPCAPENENPAFATNHAPVNAKPHALCPERKPLTSKENVLMHSSILAPERESWRTAGEGENWRKENLRKDMERDLKADSNMPLNNSSQEVTKDLLDMIDHTSIRTIEELAGKIEFENELNHMCGHCQDSPFKEEAWALLMDKSPQKATDADPGSLKQAFDDHNIVETVLDLEEDYNVMTSFKYQIE
# How the values were obtained:
# [1] = target: SMARCA2 (human) (UniProt P51531); test: AP-MS and/or BioID2 in HEK293 cells
# [2] = target: SMARCA4 (human) (UniProt P51532); test: AP-MS and/or BioID2 in HEK293 cells
# [3] = target: BRD2 (human) (UniProt P25440); test: AP-MS and/or BioID2 in HEK293 cells
# [4] = target: BRD3 (human) (UniProt Q15059); test: AP-MS and/or BioID2 in HEK293 cells
# [5] = target: p300 (human) (UniProt Q09472); test: AP-MS and/or BioID2 in HEK293 cells (method not told for the pair)
# [6] = substrate: CBP (human) (UniProt Q92793); test: as above
# [7] = target: p300 (human) (UniProt Q09472); test: AP-MS (FIG. 14A)
# [8] = target: p300 (human) (UniProt Q09472); test: AP-MS (anti-FLAG), HEK293 cells
# [9] = substrate: CBP (human) (UniProt Q92793); test: AP-MS (FIG. 14A)
# [10] = substrate: CBP (human) (UniProt Q92793); test: AP-MS (anti-FLAG), HEK293 cells
binder,measurement,setting,value
B1,binding,[1],binds
same,binding,[2],binds
B2,binding,[3],binds
same,binding,[4],binds
B3,binding,[3],binds
same,binding,[4],binds
B4,binding,[5],binds
same,binding,[6],binds
B5,binding,[5],binds
same,binding,[6],binds
B6,binding,[7],binds
same,binding,[8],binds
same,binding,[9],binds
same,binding,[10],binds
